Source: PubChem BioAssay AID686937 (Drosophila RNAi Screening Center, 2013)
In all, the deposit lists about 23,000 reagents; shown is an unselected part of those with a known target gene and a result. 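Reduced-secretion tags in replicate 1 do not always agree with the z-scores; no criterion for assigning the tags was given.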 The numbers tell different reagents against one gene apart. Reagent sequences are not shown. Not given: the amount of reagent.

Screen: 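Genes in the fly needed for secretion of protein constitutively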 (primary screen)
System: Drosophila S2 cells expressing secreted horseradish peroxidase
Knock-down reagent: long dsRNA against Drosophila genes
Time to read-out: about 5.5 days (5 days dsRNA, then 12 h reporter induction)
Treatment: reporter expression induced after 5 days of dsRNA, read 12 h later; inducer not stated
Measured: 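After 5 days of dsRNA and 12 h of reporter induction, medium peroxidase read by chemiluminescence and scored as per-plate z-score; higher values mean more reporter released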
Reading the numbers: z-score: higher = more reporter secreted into medium

gene	reagent	z-score, replicate 1	z-score, replicate 2	phenotype, replicate 1
Hsf (Heat shock factor)	1	0.24	0.31	
CG5246	1	0.22	0.2	
CG42853	1	0.4	-0.03	
Ir10a (Ionotropic receptor 10a)	1	0.57	-0.12	
Ir10a (Ionotropic receptor 10a)	2	0.4	0.59	
Ir10a (Ionotropic receptor 10a)	3	0.4	0.55	
CG3568	1	0.37	0.23	
Fcp1 (TFIIF-interacting CTD phosphatase)	1	-0.06	-0.47	
CG31121	1	0.01	0.06	
CG31121	2	-0.09	0.06	
Tb (Tubby)	1	0.3	0.66	
CG12780	1	0.32	0.38	
CG14186	1	0.51	0.22	
wrd (well-rounded)	1	-3.81	-4.97	reduced secretion
wrd (well-rounded)	2	0.43	0.48	
Mco1 (Multicopper oxidase 1)	1	0.47	0.26	
CG34331	1	0.27	0.21	
GC1	1	-0.12	-0.09	
Fib (Fibrillarin)	1	-0.17	-1.34	
CG12655	1	0.42	0.08	
Phs (Phaser)	1	0.37	0.3	

A few values from the list.
Value for Hsf (Heat shock factor) in “z-score, replicate 2”: 0.31
For “z-score, replicate 1”, CG14186 has 0.51

Further reagents follow.
gene	reagent	z-score, replicate 1	z-score, replicate 2	phenotype, replicate 1
CG14983	1	-0.72	-0.16	
CG11808	1	0.75	0.57	
daw (dawdle)	1	0.27	0.46	
COX7B (Cytochrome c oxidase subunit 7B)	1	-0.64	-0.47	
CG6830	1	0.02	0.42	
CG13332	1	-0.37	0.17	
eEF1delta (eukaryotic translation elongation factor 1 delta)	1	0.46	0.35	
Cog7 (Component of oligomeric golgi complex 7)	1	0.16	0.26	
Lgr4 (Leucine-rich repeat-containing G protein-coupled receptor 4)	1	0.09	0.06	
Lgr4 (Leucine-rich repeat-containing G protein-coupled receptor 4)	2	0.43	0.48	
Lgr4 (Leucine-rich repeat-containing G protein-coupled receptor 4)	3	0.32	0.08	
CG13050	1	0.34	0.34	
